Experiment: Suitability of fluorinated compounds as operating liquid for Piezo-ICSI
Conditions: compared to commercially available hydrofluoroether control

Structure (SMILES) | Evaluation of suitability for use as operating liquid for Piezo-ICSI | Evaluation of suitability for use as operating liquid for Piezo-ICSI (listed as Perfluoro-n-octane)
FC1(F)C(F)(F)C(F)(F)C2(F)C(F)(F)C(F)(F)C(F)(F)C(F)(F)C2(F)C1(F)F (stereo not shown) [Perfluorodecalin, perfluorodecalin, reference compound] | Poor-Due to its high viscosity, it took | 
FC1(F)C(F)(F)C(F)(F)C2(F)C(F)(C1(F)F)C(F)(F)C(F)(F)C1(F)C(F)(F)C(F)(F)C(F)(F)C(F)(F)C12F (stereo not shown) [Perfluoroperhydrophenanthrene, perfluoroperhydrophenanthrene, reference compound] | Unusable-The viscosity of | 
FC(F)(F)C(F)(F)C(F)(F)C(F)(F)C(F)(F)C(F)(F)C(F)(F)C(F)(F)F [perfluoro-n-octane, 1,1,1,2,2,3,3,4,4,5,5,6,6,7,7,8,8,8-octadecafluorooctane] | as suitable for use as operating liquid for piezo-ICSI as the standard hydrofluoroether operating liquid | Good-Loading of perfluoro-n-octane
